Data taken from the supplement of paper PMC12819154, “High-throughput peptide-centric local stability assay extends protein–ligand identification to membrane proteins, tissues and bacteria” (Nature Structural & Molecular Biology, 2025).
The other results are listed elsewhere or left out. Most entries show no effect beyond the scatter of the controls.

Protein sequences, listed by entry. Tags and fused reporters are not part of them. Lines headed by an entry give the natural chain unless they say otherwise; changes in a name come on top.
UniProt P70445: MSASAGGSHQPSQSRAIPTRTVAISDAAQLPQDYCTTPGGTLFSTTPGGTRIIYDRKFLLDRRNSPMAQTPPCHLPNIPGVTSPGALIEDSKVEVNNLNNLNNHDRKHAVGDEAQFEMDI
UniProt P81117: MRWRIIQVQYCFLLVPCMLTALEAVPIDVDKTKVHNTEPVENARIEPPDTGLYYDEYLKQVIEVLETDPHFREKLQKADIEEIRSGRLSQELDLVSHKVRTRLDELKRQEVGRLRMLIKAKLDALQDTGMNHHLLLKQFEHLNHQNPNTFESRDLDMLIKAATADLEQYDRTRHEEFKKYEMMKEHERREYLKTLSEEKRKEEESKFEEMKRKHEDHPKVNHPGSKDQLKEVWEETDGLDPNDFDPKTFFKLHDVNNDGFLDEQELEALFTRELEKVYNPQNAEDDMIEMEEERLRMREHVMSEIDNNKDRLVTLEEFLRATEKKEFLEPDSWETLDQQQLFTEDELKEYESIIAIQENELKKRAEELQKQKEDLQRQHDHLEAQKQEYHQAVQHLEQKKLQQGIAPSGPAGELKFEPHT
UniProt P97794: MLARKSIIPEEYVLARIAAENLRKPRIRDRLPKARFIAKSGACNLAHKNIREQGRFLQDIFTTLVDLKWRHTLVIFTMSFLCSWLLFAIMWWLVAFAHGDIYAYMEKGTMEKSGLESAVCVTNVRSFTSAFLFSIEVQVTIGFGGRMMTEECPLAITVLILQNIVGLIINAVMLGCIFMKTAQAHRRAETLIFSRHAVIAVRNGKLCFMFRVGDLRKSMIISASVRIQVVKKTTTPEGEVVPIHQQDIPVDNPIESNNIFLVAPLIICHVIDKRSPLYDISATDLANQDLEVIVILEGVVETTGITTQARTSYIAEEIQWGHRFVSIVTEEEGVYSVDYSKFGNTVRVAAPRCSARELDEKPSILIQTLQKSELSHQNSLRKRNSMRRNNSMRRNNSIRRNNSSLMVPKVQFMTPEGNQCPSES
UniProt P97471: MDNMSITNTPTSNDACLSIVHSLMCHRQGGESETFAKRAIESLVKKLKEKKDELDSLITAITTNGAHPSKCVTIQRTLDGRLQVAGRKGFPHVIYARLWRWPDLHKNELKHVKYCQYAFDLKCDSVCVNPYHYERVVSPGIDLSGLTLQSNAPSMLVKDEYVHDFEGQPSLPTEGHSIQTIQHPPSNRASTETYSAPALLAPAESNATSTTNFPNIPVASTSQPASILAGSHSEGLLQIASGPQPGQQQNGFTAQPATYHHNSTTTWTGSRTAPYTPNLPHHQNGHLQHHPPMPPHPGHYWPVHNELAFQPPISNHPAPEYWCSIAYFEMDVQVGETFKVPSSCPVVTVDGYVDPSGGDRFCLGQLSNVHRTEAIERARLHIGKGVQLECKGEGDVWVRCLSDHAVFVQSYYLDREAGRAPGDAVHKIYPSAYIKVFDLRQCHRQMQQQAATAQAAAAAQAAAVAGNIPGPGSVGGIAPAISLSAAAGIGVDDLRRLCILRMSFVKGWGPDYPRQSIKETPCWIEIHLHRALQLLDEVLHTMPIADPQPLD

compound: CN[C@@H]1C[C@H]2O[C@@](C)([C@@H]1OC)n1c3ccccc3c3c4c(c5c6ccccc6n2c5c31)C(=O)NC4 [staurosporine]; test: log2 fold change of tryptic peptide abundance, ligand vs vehicle (limited proteolysis) (log2 ratio); higher = more trypsin-susceptible (destabilized); conditions: ligand concentration: 20 uM; sample: mouse liver crude lysate; replicate design: treated separately

Target | log2 fold change
UniProt P70445 (peptide sequence: KFLLDRR, peptide start residue: 57) | 0.286
UniProt P97351 (peptide sequence: KVVDPFSK, peptide start residue: 20) | 0.144
UniProt P81117 (peptide sequence: LDALQDTGMNHHLLLK, peptide start residue: 122) | 0.21
UniProt P97794 (peptide sequence: SELSHQNSLR, peptide start residue: 372) | 0.482
UniProt P97471 (peptide sequence: WPDLHKNELK, peptide start residue: 101) | 0.525
